# Source: the supplement of paper PMC8728848
# The other results are listed elsewhere or left out.
# What was measured:
# Assay in all cases: glycan array binding signal (z-score within array); higher = stronger binding
# Settings in all cases: glycan notation: IUPAC condensed, linker removed
# [1] = target: Gal(b1-4)GlcNAc(b1-3)[GlcNAc(b1-6)]Gal(b1-4)GlcNAc
# Summary of the method: (§1)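 The Consortium for Functional Glycomics database supplied 3228 glycan arrays, of which those lacking an available protein sequence were dropped. The binding signal, a within-array Z-score, was averaged across arrays of the same protein sequence and across linkers. Negative scores can be read as non-binding.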
# [2] = target: Gal(b1-4)GlcNAc(b1-6)Gal(b1-4)GlcNAc
# Summary of the method: as §1
# [3] = target: Gal(b1-4)GlcNAc(b1-6)Gal(b1-4)GlcNAc(b1-6)GalNAc
# Summary of the method: as §1
# [4] = target: Gal(b1-4)GlcNAc(b1-6)GalNAc
# Summary of the method: as §1
# [5] = target: Gal(b1-4)GlcNAc(b1-6)[Gal(b1-3)]GalNAc
# Summary of the method: as §1
# [6] = target: Gal3S(b1-3)GalNAc
# Summary of the method: as §1
# [7] = target: Gal3S(b1-3)GlcNAc
# Summary of the method: as §1
# [8] = target: Gal3S(b1-3)[Fuc(a1-4)]GlcNAc
# Summary of the method: as §1
# [9] = target: Gal3S(b1-4)Glc
# Summary of the method: as §1
# [10] = target: Gal3S(b1-4)Glc6S
# Summary of the method: as §1
# [11] = target: Gal3S(b1-4)GlcNAc
# Summary of the method: as §1
# [12] = target: Gal3S(b1-4)GlcNAc6S
# Summary of the method: as §1
# [13] = target: Gal3S(b1-4)[Fuc(a1-3)]Glc
# Summary of the method: as §1
# [14] = target: Gal3S4S(b1-4)GlcNAc
# Summary of the method: as §1
# [15] = target: Gal3S6S(b1-4)GlcNAc
# Summary of the method: as §1
# [16] = target: Gal3S6S(b1-4)GlcNAc6S
# Summary of the method: as §1
# [17] = target: Gal4S(b1-4)GlcNAc
# Summary of the method: as §1
# [18] = target: Gal4S6S(b1-4)GlcNAc
# Summary of the method: as §1
# [19] = target: Gal6S(b1-4)Glc
# Summary of the method: as §1
# [20] = target: Gal6S(b1-4)Glc6S
# Summary of the method: as §1
# [21] = target: Gal6S(b1-4)GlcNAc
# Summary of the method: as §1
# [22] = target: Gal6S(b1-4)GlcNAc6S
# Summary of the method: as §1
# [23] = target: GalNAc(a1-3)Gal
# Summary of the method: as §1
# [24] = target: GalNAc(a1-3)GalNAc
# Summary of the method: as §1
# [25] = target: GalNAc(b1-3)Gal
# Summary of the method: as §1
# [26] = target: GalNAc(b1-3)Gal(a1-4)Gal(b1-4)GlcNAc
# Summary of the method: as §1
# [27] = target: GalNAc(b1-3)Gal(a1-4)Gal(b1-4)GlcNAc(b1-3)Gal(b1-4)Glc
# Summary of the method: as §1
# [28] = target: GalNAc(b1-3)GalNAc
# Summary of the method: as §1
# [29] = target: GalNAc(b1-4)GlcNAc
# Summary of the method: as §1
# [30] = target: GalNAc(b1-4)GlcNAc(b1-2)Man(a1-3)[GalNAc(b1-4)GlcNAc(b1-2)Man(a1-6)]Man(b1-4)GlcNAc(b1-4)GlcNAc
# Summary of the method: as §1
# [31] = target: Glc(a1-4)Glc
# Summary of the method: as §1
# [32] = target: Glc(a1-6)Glc(a1-6)Glc
# Summary of the method: as §1
# [33] = target: Glc(b1-4)Glc
# Summary of the method: as §1
# [34] = target: Glc(b1-6)Glc
# Summary of the method: as §1
# [35] = target: GlcA(b1-3)Gal
# Summary of the method: as §1
# [36] = target: GlcA(b1-3)GlcNAc
# Summary of the method: as §1
# [37] = target: GlcA(b1-6)Gal
# Summary of the method: as §1
# [38] = target: GlcNAc(a1-3)Gal(b1-4)GlcNAc
# Summary of the method: as §1
# [39] = target: GlcNAc(a1-4)Gal(b1-3)GlcNAc
# Summary of the method: as §1
# [40] = target: GlcNAc(a1-4)Gal(b1-4)GalNAc
# Summary of the method: as §1
# [41] = target: GlcNAc(a1-4)Gal(b1-4)GlcNAc
# Summary of the method: as §1
# [42] = target: GlcNAc(a1-4)Gal(b1-4)GlcNAc(b1-3)Gal(b1-4)Glc
# Summary of the method: as §1
# [43] = target: GlcNAc(a1-4)Gal(b1-4)GlcNAc(b1-3)Gal(b1-4)GlcNAc
# Summary of the method: as §1
# [44] = target: GlcNAc(a1-4)Gal(b1-4)GlcNAc(b1-3)Gal(b1-4)GlcNAc(b1-3)Gal(b1-4)GlcNAc
# Summary of the method: as §1
# [45] = target: GlcNAc(a1-4)Gal(b1-4)GlcNAc(b1-3)Gal(b1-4)[Fuc(a1-3)]GlcNAc(b1-3)Gal(b1-4)[Fuc(a1-3)]GlcNAc
# Summary of the method: as §1
# [46] = target: GlcNAc(a1-6)Gal(b1-4)GlcNAc
# Summary of the method: as §1
# [47] = target: GlcNAc(b1-2)Gal(b1-3)GalNAc
# Summary of the method: as §1
# [48] = target: GlcNAc(b1-2)Man(a1-3)[GlcNAc(b1-2)Man(a1-6)]Man(b1-4)GlcNAc(b1-4)GlcNAc
# Summary of the method: as §1
# [49] = target: GlcNAc(b1-2)Man(a1-3)[GlcNAc(b1-2)Man(a1-6)]Man(b1-4)GlcNAc(b1-4)[Fuc(a1-6)]GlcNAc
# Summary of the method: as §1
# [50] = target: GlcNAc(b1-3)Gal
# Summary of the method: as §1
# [51] = target: GlcNAc(b1-3)Gal(b1-3)GalNAc
# Summary of the method: as §1
# [52] = target: GlcNAc(b1-3)Gal(b1-4)Glc
# Summary of the method: as §1
# [53] = target: GlcNAc(b1-3)Gal(b1-4)GlcNAc
# Summary of the method: as §1
# [54] = target: GlcNAc(b1-3)Gal(b1-4)GlcNAc(b1-3)Gal(b1-4)GlcNAc
# Summary of the method: as §1
# [55] = target: GlcNAc(b1-3)GalNAc
# Summary of the method: as §1
# [56] = target: GlcNAc(b1-3)Man
# Summary of the method: as §1
# [57] = target: GlcNAc(b1-3)[GlcNAc(b1-4)][GlcNAc(b1-6)]GlcNAc
# Summary of the method: as §1
# [58] = target: GlcNAc(b1-3)[GlcNAc(b1-6)]Gal(b1-4)GlcNAc
# Summary of the method: as §1
# [59] = target: GlcNAc(b1-3)[GlcNAc(b1-6)]GalNAc
# Summary of the method: as §1
# [60] = target: GlcNAc(b1-4)Gal(b1-4)GlcNAc
# Summary of the method: as §1
# [61] = target: GlcNAc(b1-4)GlcNAc
# Summary of the method: as §1
# [62] = target: GlcNAc(b1-4)GlcNAc(b1-4)GlcNAc
# Summary of the method: as §1
# [63] = target: GlcNAc(b1-4)GlcNAc(b1-4)GlcNAc(b1-4)GlcNAc(b1-4)GlcNAc
# Summary of the method: as §1
# [64] = target: GlcNAc(b1-4)GlcNAc(b1-4)GlcNAc(b1-4)GlcNAc(b1-4)GlcNAc(b1-4)GlcNAc
# Summary of the method: as §1
# [65] = target: GlcNAc(b1-4)[GlcNAc(b1-6)]GalNAc
# Summary of the method: as §1
# [66] = target: GlcNAc(b1-6)Gal(b1-4)GlcNAc
# Summary of the method: as §1
# [67] = target: GlcNAc(b1-6)GalNAc
# Summary of the method: as §1
# [68] = target: GlcNAc3Prop(b1-4)GlcNAc
# Summary of the method: as §1
# [69] = target: GlcNAc6S(b1-3)Gal(b1-4)GlcNAc
# Summary of the method: as §1
# [70] = target: Kdn(a2-3)Gal(b1-3)GalNAc
# Summary of the method: as §1
# [71] = target: Kdn(a2-3)Gal(b1-3)GlcNAc
# Summary of the method: as §1
# [72] = target: Kdn(a2-3)Gal(b1-4)Glc
# Summary of the method: as §1
# [73] = target: Kdn(a2-3)Gal(b1-4)GlcNAc
# Summary of the method: as §1
# [74] = target: Kdn(a2-3)Gal(b1-4)[Fuc(a1-3)]GlcNAc
# Summary of the method: as §1
# [75] = target: Kdn(a2-6)Gal(b1-4)GlcNAc
# Summary of the method: as §1
binder,measurement,setting,value
"4F2hc (Homo sapiens), P08195 (protein) WWHTGALYRIGDLQAFQGHGAGNLAGLKGRLDYLSSLKVKGLVLGPIHKNQKDDVAQTDLLQIDPNFGSKEDFDSLLQSAKKKSIRVILDLTPNYRGENSWFSTQVDTVATKVKDALEFWLQAGVDGFQVRDIENLKDASSFLAEWQNITKGFSEDRLLIAGTNSSDLQQILSLLESNKDLLLTSSYLSDSGSTGEHTKSLVTQYLNATGNRWCSWSLSQARLLTSFLPAQLLRLYQLMLFTLPGTPVFSYGDEIGLDAAALPGQPMEAPVMLWDESSFPDIPGAVSANMTVKGQSEDPGSLLSLFRRLSDQRSKERSLLHGDFHAFSAGPGLFSYIRHWDQNERFLVVLNFGDVGLSAGLQASDLPASASLPAKADLLLSTQPGREEGSPLELERLKLEPHEGLLLRFPYAA",glycan array binding signal (z-score),[1],-0.416
same,glycan array binding signal (z-score),[2],-0.645
same,glycan array binding signal (z-score),[3],-0.288
same,glycan array binding signal (z-score),[4],1.14
same,glycan array binding signal (z-score),[5],-0.748
same,glycan array binding signal (z-score),[6],0.107
same,glycan array binding signal (z-score),[7],0.65
same,glycan array binding signal (z-score),[8],-0.207
same,glycan array binding signal (z-score),[9],-0.239
same,glycan array binding signal (z-score),[10],-0.163
same,glycan array binding signal (z-score),[11],-0.49
same,glycan array binding signal (z-score),[12],-0.477
same,glycan array binding signal (z-score),[13],-0.508
same,glycan array binding signal (z-score),[14],3.95
same,glycan array binding signal (z-score),[15],0.274
same,glycan array binding signal (z-score),[16],-0.868
same,glycan array binding signal (z-score),[17],-0.887
same,glycan array binding signal (z-score),[18],0.717
same,glycan array binding signal (z-score),[19],-0.252
same,glycan array binding signal (z-score),[20],-0.183
same,glycan array binding signal (z-score),[21],0.291
same,glycan array binding signal (z-score),[22],0.094
same,glycan array binding signal (z-score),[23],0.209
same,glycan array binding signal (z-score),[24],1.36
same,glycan array binding signal (z-score),[25],-0.631
same,glycan array binding signal (z-score),[26],-0.432
same,glycan array binding signal (z-score),[27],-0.255
same,glycan array binding signal (z-score),[28],-0.167
same,glycan array binding signal (z-score),[29],-1.02
same,glycan array binding signal (z-score),[30],-0.271
same,glycan array binding signal (z-score),[31],-0.079
same,glycan array binding signal (z-score),[32],0.043
same,glycan array binding signal (z-score),[33],-1.04
same,glycan array binding signal (z-score),[34],-1.01
same,glycan array binding signal (z-score),[35],-0.532
same,glycan array binding signal (z-score),[36],0.213
same,glycan array binding signal (z-score),[37],-0.927
same,glycan array binding signal (z-score),[38],1.33
same,glycan array binding signal (z-score),[39],1.05
same,glycan array binding signal (z-score),[40],-1.21
same,glycan array binding signal (z-score),[41],-0.128
same,glycan array binding signal (z-score),[42],0.211
same,glycan array binding signal (z-score),[43],0.598
same,glycan array binding signal (z-score),[44],0.524
same,glycan array binding signal (z-score),[45],-0.386
same,glycan array binding signal (z-score),[46],0.708
same,glycan array binding signal (z-score),[47],-0.52
same,glycan array binding signal (z-score),[48],-0.182
same,glycan array binding signal (z-score),[49],0.356
same,glycan array binding signal (z-score),[50],-0.42
same,glycan array binding signal (z-score),[51],2.03
same,glycan array binding signal (z-score),[52],0.852
same,glycan array binding signal (z-score),[53],-1.04
same,glycan array binding signal (z-score),[54],-0.297
same,glycan array binding signal (z-score),[55],-1.12
same,glycan array binding signal (z-score),[56],0.475
same,glycan array binding signal (z-score),[57],0.331
same,glycan array binding signal (z-score),[58],-0.39
same,glycan array binding signal (z-score),[59],0.138
same,glycan array binding signal (z-score),[60],-0.853
same,glycan array binding signal (z-score),[61],0.587
same,glycan array binding signal (z-score),[62],-0.291
same,glycan array binding signal (z-score),[63],-0.596
same,glycan array binding signal (z-score),[64],-0.813
same,glycan array binding signal (z-score),[65],0.848
same,glycan array binding signal (z-score),[66],0.103
same,glycan array binding signal (z-score),[67],-0.053
same,glycan array binding signal (z-score),[68],0.691
same,glycan array binding signal (z-score),[69],-1.04
same,glycan array binding signal (z-score),[70],0.936
same,glycan array binding signal (z-score),[71],0.425
same,glycan array binding signal (z-score),[72],0.269
same,glycan array binding signal (z-score),[73],-0.517
same,glycan array binding signal (z-score),[74],0.966
same,glycan array binding signal (z-score),[75],0.863

# An excerpt of the results above, for reference:
binder,measurement,setting,value
"4F2hc (Homo sapiens), P08195 (protein) WWHTGALYRIGDLQAFQGHGAGNLAGLKGRLDYLSSLKVKGLVLGPIHKNQKDDVAQTDLLQIDPNFGSKEDFDSLLQSAKKKSIRVILDLTPNYRGENSWFSTQVDTVATKVKDALEFWLQAGVDGFQVRDIENLKDASSFLAEWQNITKGFSEDRLLIAGTNSSDLQQILSLLESNKDLLLTSSYLSDSGSTGEHTKSLVTQYLNATGNRWCSWSLSQARLLTSFLPAQLLRLYQLMLFTLPGTPVFSYGDEIGLDAAALPGQPMEAPVMLWDESSFPDIPGAVSANMTVKGQSEDPGSLLSLFRRLSDQRSKERSLLHGDFHAFSAGPGLFSYIRHWDQNERFLVVLNFGDVGLSAGLQASDLPASASLPAKADLLLSTQPGREEGSPLELERLKLEPHEGLLLRFPYAA",glycan array binding signal (z-score),[62],-0.291
same,glycan array binding signal (z-score),[63],-0.596
same,glycan array binding signal (z-score),[64],-0.813
same,glycan array binding signal (z-score),[65],0.848
